Like-named read-outs stand apart in the source and are kept apart here. The structures given here were assigned with low confidence; some may be wrong.

Amino acid sequences for entries named in this document (tags omitted). Residues count along the entry.
UniProt Q9NR97, 27-1041 limits assumed: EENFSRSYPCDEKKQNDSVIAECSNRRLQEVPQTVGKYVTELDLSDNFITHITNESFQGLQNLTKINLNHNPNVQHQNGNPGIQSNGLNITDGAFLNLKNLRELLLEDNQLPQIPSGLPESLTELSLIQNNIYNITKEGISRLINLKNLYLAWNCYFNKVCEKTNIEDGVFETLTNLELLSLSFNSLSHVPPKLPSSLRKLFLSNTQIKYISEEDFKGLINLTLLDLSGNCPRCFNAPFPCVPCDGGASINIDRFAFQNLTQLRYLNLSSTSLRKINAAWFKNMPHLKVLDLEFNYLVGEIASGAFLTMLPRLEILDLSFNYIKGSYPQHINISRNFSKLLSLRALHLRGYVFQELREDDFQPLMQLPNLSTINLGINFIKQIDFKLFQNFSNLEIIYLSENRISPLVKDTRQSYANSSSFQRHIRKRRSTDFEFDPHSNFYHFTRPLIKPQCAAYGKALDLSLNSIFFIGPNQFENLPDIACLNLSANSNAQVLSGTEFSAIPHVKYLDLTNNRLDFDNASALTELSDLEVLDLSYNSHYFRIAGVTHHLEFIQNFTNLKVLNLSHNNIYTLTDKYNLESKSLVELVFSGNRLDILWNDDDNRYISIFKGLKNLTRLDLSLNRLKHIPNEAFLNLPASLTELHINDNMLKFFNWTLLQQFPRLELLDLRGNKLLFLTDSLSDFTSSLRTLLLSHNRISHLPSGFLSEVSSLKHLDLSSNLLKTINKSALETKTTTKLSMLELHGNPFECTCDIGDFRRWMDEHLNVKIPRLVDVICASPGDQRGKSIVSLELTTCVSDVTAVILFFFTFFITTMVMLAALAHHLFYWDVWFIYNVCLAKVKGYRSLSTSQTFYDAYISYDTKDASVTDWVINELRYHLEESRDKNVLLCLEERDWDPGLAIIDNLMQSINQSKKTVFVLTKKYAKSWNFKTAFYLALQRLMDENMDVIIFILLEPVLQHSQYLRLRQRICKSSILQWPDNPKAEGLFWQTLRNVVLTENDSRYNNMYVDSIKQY

In experiment [1] the target is human TLR 8 protein in HEK-blue hTLR 8 tool cell line (Homo sapiens, UniProt Q9NR97). Nature of the experiment: TLR8 stimulation determined by HEK-Blue Detection (NF-κB/SEAP reporter). Conditions: read-out: EC50 (nmol); HEK-Blue hTLR8 cells, 16 h incubation, relative to maximum activation by Resiquimod or motolimod. From the text:
TLR8 Stimulation Determined by HEK-Blue Detection
This assay was designed to study the stimulation of human TLR 8 protein in HEK-blue hTLR 8 tool cell line by monitoring the activation of NF-κB. HEK-blue hTLR8 cells were obtained by co-transfection of hTLR8 gene and optimized secretory embryonic alkaline phosphatase (SEAP) reporter gene into HEK293 cells. SEAP reporter gene was put under the control of […] minimal promoter fused with five NF-κB and AP-1-binding sites. NF-κB and AP-1 were activated by stimulation with TLR 8 ligand, thus inducing the expression of SEAP. The level of SEAP can be easily determined by HEK-Blue Detection (a cell culture medium that allows real-time detection of SEAP). HEK-Blue Detection comprises all nutrients needed for cell growth and specific SEAP color substrates. The hydrolysis of substrate by SEAP produces purple/blue color which can be measured by spectrophotometer.
When growing to 50-80% confluence, HEK-Blue hTLR7/8 cells were plated into 96-well plates (costar 3599) at a density of 40,000 cells/well. Then, the compound serially diluted at 10 points with a final concentration ranging from 1 nM to 10 μm in 0.1% DMSO/HEK-Blue Detection was added. […] Optical density at 620-655 nm was read on BMG PHERAstar FSX instrument. The EC50 of each compound was determined by calculating the maximum activation percentage identified using Resiquimod or motolimod. […]

The test system of experiment [2] is PBMC (peripheral blood monocyte). Nature of the experiment: PBMC determination: cytokines in culture supernatant measured by HTRF. The following applies: human PBMC, 24 h. On the procedure:
Determination of PBMC (Peripheral Blood Monocyte) Cell Preparation, Separation and Culture
Human whole blood was collected from healthy volunteers using BD Vacutainer® Lithium Heparin Tubes. PBMCs were prepared using Ficoll separation medium (GE Healthcare) by SopMate™ (STEMCELL). The cell survival rate was over 85% as monitored by Countstar. PBMCs were cultured in RPMI 1640 (Gibco) 10% (v/v) FBS (Gibco), 1×MEM NEAA (Gibco), 1× GlutaMAX (Gibco), 1 mM sodium pyruvate (Gibco), 50 uM 2-mercaptoethanol (sigma), and 100 U/ml penicillin-streptomycin (Thermo fisher Scientific).
PBMCs were plated into 96-well plates (costar 3894) with a density of 2×10^5 cells/well. Then, TLR7/8 compound was added, and serial dilution was carried out at ten points. The final concentration in 0.1% DMSO/RPMI 1640 ranged from 1 nM to 10 μM. Then, the plates were incubated in 5% CO2 at 37° C. for 24 h.
HTRF (Homogeneous Time-Resolved Fluorescence)
After the specified time point, according to the manufacturers recommendations, the cytokines in the cell culture supernatant were measured by Human IL6 kit (cisbio) and Human TNF alpha kit (cisbio). The EC50 of each compound was determined by calculating the maximum activation percentage identified using Resiquimod or Motolimod.
(In general: TR-FRET usually uses a lanthanide donor and a delayed reading to cut background.)

`CCC[C@H](C)Oc1nc(N)c2ncc(CC3CCN(CCCNC)CC3)n2n1`: the half-maximal effective concentration (EC50) (commonly the midpoint of the concentration-response curve) amounted to 66 nM in experiment [1]; 247 nM in experiment [2] (read-out: IL6 (EC50), Human IL6 kit (HTRF)); 430 nM in experiment [2] (read-out: TNF-alpha (EC50), Human TNF alpha kit (HTRF)).

For the origin of these results see US12590096B2, “Imidazo[2,1-f][1,2,4]triazin-4-amine as TLR8 agonists” (BeOne Medicines | GmbH, priority 2019, dated 2026).
